The campaign covered roughly 360,000 compounds. About 9,100 (2.5%) were called active. Inconclusive results, whose numbers are uncertain, are shown with a selection of clear calls. No stated cut-off is given here; in the data, active means max response below about -50%; inconclusive means no clear call, values can overlap the other calls; inactive means above that.
What follows are molecules tested against D(3) dopamine receptor (Homo sapiens) (UniProt P35462) (assay: qHTS of D3 Dopamine Receptor Antagonist: qHTS). Conditions: D3R cells, DiscoveRx beta-arrestin luminescence, antagonist mode; hits give low values.
Outline: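 Cells plated overnight at 1500 cells/well, then exposed to library compounds with dopamine controls for 90 minutes at 37 degrees C. DiscoveRx reagent added for 30–60 minutes at room temperature; luminescence read, quantitative HTS format.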
On the % scale 0 is the no-effect control and ±100 the full control effect.

The chains behind the UniProt entries cited, without tags or fusion partners.
UniProt P35462, whole entry, looked up: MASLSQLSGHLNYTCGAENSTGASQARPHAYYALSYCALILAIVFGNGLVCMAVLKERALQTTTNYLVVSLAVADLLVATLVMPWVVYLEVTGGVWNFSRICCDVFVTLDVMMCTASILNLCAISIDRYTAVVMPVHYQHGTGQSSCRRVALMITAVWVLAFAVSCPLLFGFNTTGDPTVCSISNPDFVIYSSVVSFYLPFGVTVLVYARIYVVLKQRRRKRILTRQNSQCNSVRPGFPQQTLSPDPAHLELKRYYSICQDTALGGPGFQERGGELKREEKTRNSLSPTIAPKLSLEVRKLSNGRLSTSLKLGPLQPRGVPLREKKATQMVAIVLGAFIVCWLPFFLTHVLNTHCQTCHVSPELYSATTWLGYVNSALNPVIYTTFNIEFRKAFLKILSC

SMILES	max response, negative = inhibition
Cc1ccccc1OCC(O)Cn1nnc2ccccc21 (stereo unspecified)	inactive: 8.45%
CCCCc1ccc(NC(=S)NCCCN2CCOCC2)cc1	inconclusive: -31.7%
Cc1cc(/C([O-])=C(/C(=S)Nc2ccc(F)cc2)[n+]2ccccc2)c(C)n1-c1ccc(F)cc1	inconclusive: -31%
COc1ccc(CNc2ccccc2SC)cc1OC	inactive: 19.8%
Cc1ccc(Cl)cc1N1CCN(C(=O)C2CCCN(S(=O)(=O)c3cnc[nH]3)C2)CC1 (stereo unspecified)	inconclusive: -30.8%
CC(NC(=O)CCNC(=O)c1ccccc1Cl)c1ccc(-n2ccnc2)cc1 (stereo unspecified)	active: -59.4%
Cc1cc(C)cc(-n2c3ccc(NC(=S)NC4CCCCC4)cc3c(=O)n2C)c1	inconclusive: -46.7%
C[C@H](CO)N1C[C@H](C)[C@@H](CN(C)C(=O)Nc2ccccc2)Oc2c(NC(=O)Cc3ccccc3)cccc2C1=O	inconclusive: -34.6%
COc1ccc(/C=C/C(=O)NC2CCCCCCC2)cc1S(=O)(=O)N1CCOCC1	inactive: 10.4%
C=CCC(C)(NCc1ccccc1)c1ccco1 (stereo unspecified)	inconclusive: -44.8%
CC[C@@]1(C(=O)OC)N[C@H](CN(C)C(=O)COC)[C@@H]2C(=O)N(Cc3ccccc3)C(=O)[C@@H]21	inactive: 11.2%
Cc1c(C(=O)N2CCN(Cc3cccs3)CC2)oc2ccccc12	active: -79.4%
COc1ccc(-c2oc3c(c2-c2cnc(OC)nc2)C(O)CC3)cc1 (stereo unspecified)	inconclusive: -38.5%
CCSc1nsc(NC(=O)Nc2ccccc2F)n1	inactive: 0.548%
COc1cc2oc(=O)cc(CN3CCN(c4ccccc4OC)CC3)c2cc1Cl	active: -50%
O=[N+]([O-])c1ccc(O)c(/C=N/Nc2ccc(Cl)nn2)c1	active: -84.1%
CN(C)CCCNC(=O)C(=O)Nc1cc2c3c(c1)CCC(=O)N3CCC2	inactive: -7.75%
CCOC(=O)[C@]12CCC=C1N(CCC1=CCCCC1)C(=O)[C@H](CC(=O)N1CCN(C(=O)C3CC3)CC1)C2	inconclusive: -47.4%
NNC(=O)CN1C(c2ccc(Br)cc2)=Nc2ccc(Br)cc2C1c1ccccc1 (stereo unspecified)	active: -55%

Rewritten with each value named: 2 of the compounds above.
Cc1ccc(Cl)cc1N1CCN(C(=O)C2CCCN(S(=O)(=O)c3cnc[nH]3)C2)CC1 (stereo unspecified)
  max response, negative = inhibition: inconclusive: -30.8%
CC(NC(=O)CCNC(=O)c1ccccc1Cl)c1ccc(-n2ccnc2)cc1 (stereo unspecified)
  max response, negative = inhibition: active: -59.4%

(listing goes on)

SMILES	max response, negative = inhibition
CN1CCN(c2ccccc2/C=C2/C(=O)Nc3ccccc32)CC1	inconclusive: -41.9%
CN1CCN(c2ncnc3scc(-c4ccccc4Cl)c23)CC1	inconclusive: -49.9%
COCCC(=O)N1CCCC(C(=O)c2ccccc2SC)C1 (stereo unspecified)	active: -58.8%
Nc1c(C(=O)Nc2ccccc2)c2nc3ccccc3nc2n1CCCN1CCOCC1	inactive: 17.7%
O=c1[nH]c2ccc(Br)cc2c(-c2ccccc2)c1CN1CCOCC1	inconclusive: -30.8%
Cc1nn(-c2ccccc2)c2sc(C(=O)n3cccn3)cc12	inconclusive: -31.1%
COc1cc(/C=C/c2cc[n+](C)cc2)ccc1OCC(=O)Nc1ccccc1	inactive: -24.4%
COc1ccc(-n2c(=S)[nH]c3cc(C(=O)NCCCN4CCCC4=O)ccc3c2=O)cc1OC	inconclusive: -30.6%
Cc1ccccc1OCCCCCNCCO	inactive: -14.5%
Cc1ccn2c(Cc3ccccc3)c(-c3ccc(Br)cc3)nc2c1	inconclusive: -46.9%
Cc1cccc(Nc2c(O)nc[nH]c2=O)c1	inactive: -15.2%
Cc1c(Cl)cccc1NC(=S)NC(=O)c1cncc(Br)c1	inconclusive: -32.1%
O=C(CSc1nnc(-c2ccco2)n1-c1ccccc1)NCCc1ccccc1	active: -54.3%
COc1ccc(C(c2c(O)ccc3ccccc23)N2CCOCC2)c(OC)c1 (stereo unspecified)	inconclusive: -31%
CCOC(=O)N1CCN(C(=O)c2ccc3nc(N4CCCCC4)sc3c2)CC1	inconclusive: -36.4%
CC1/C(=N/O)C(CN(C)C)C2CC1C2(C)C (stereo unspecified)	active: -68.7%
Cc1ccc(C(=O)Nc2nnc([C@H]3C[C@H](O)[C@@H](CO)O3)s2)cc1	active: -76.5%
CN(Cc1cccs1)C(=O)CN1CCN(S(=O)(=O)c2ccc3c(c2)OCCCO3)CC1	inconclusive: -34.9%
N#Cc1cn(-c2ccccc2)nc1-c1cc2ccccc2oc1=O	inconclusive: -41.6%

SMILES	max response, negative = inhibition
Cc1cccc(CCN2CCN=C2Nc2ccccc2)c1	active: -56.4%
O=C(N[C@H]1/C=C\[C@@H](O)CCCC1)OCc1ccccc1	inactive: -14.2%
C=CCOC(=O)C1=C(C)NC(SCC(N)=O)=C(C#N)C1c1cccs1 (stereo unspecified)	inactive: -10.2%
C[C@@H]1Cn2cnc(C(=O)NCc3ccc(CNC(=O)OC(C)(C)C)cc3)c2C(=O)N1	inactive: 10.7%
c1ccc(OCCCc2nc(-c3ccncc3)no2)cc1	active: -52.2%
O=S(=O)(c1cc(F)ccc1F)N1CCN(c2ncnc3ccccc23)CC1	inactive: 40.4%
C[n+]1c(/C=C/c2ccc(O)cc2)ccc2ccccc21	inconclusive: -34.6%
CCCCCn1c(CNC(=O)c2cccs2)nc2ccccc21	inconclusive: -33.7%
C=C1CCN([C@@H](C)C(=O)OCc2ccc(C)cc2)S(=O)(=O)c2ccccc21	inconclusive: -31.3%
COc1cc(C=C(c2nc3ccccc3s2)c2nc3ccccc3s2)ccc1O	inconclusive: -45.2%
CCc1nnc(NC(=O)C2CCN(C(=O)c3ccco3)CC2)s1	inactive: -9.95%
CC(=O)Nc1ccccc1NC(=O)C/C(C)=N/NC(=O)c1ccc([N+](=O)[O-])c(Cl)c1	active: -58%
CC(C)(C)OC(=O)N(CCc1ccccc1)Cc1ccccc1OCc1cccc(NC(=O)C2CCCC2)c1	active: -50.4%
CCN(CC)CCCNC(=O)c1cc2c(-c3ccc(Cl)cc3)nn(C)c2s1	inconclusive: -47.1%
COC(=O)c1ccc(C2C(Oc3ccccc3)C(=O)N2CCc2ccc(F)cc2)cc1 (stereo unspecified)	inconclusive: -31%
CCOC(=O)c1c(C)[nH]c(C(=O)OC/C(O)=C(\C#N)c2nc3ccccc3[nH]2)c1C	active: -52.3%
COc1ccccc1C1NC=C([N+](=O)[O-])C=C1[N+](=O)[O-] (stereo unspecified)	active: -62.2%
Cc1cccc(OCC(=O)Nc2ccc3c(c2)nc(CCN2CCC(C)CC2)n3C)c1	inconclusive: -36.6%

Source: PubChem BioAssay AID652054 (National Center for Advancing Translational Sciences (NCATS), 2013)
